# The list shows a part of the results.
# B1: FimA-N2 (Actinomyces oris) (protein)
# chain: MHHHHHHSSGVDLGTENLYFQSNAWIYDVNVYPKNEAIDVDKTIQAQKLNGYGVGSLIKFPVESTAPTLDAKSFYKYFQLKDTLDERLSEVTATDVSLEGTPLQPTDYKVETKQQTVTVTFTAEGLKKIKAAPGKKVSAVFQGKVTKAGNGAITNRAQVISDTLYAEQPPTPETPPTDPENPPTSDEVISRWGDLSIKKVDTHQQGQTKA
# Assays:
# Test in all cases: glycan array binding signal (z-score within array); higher = stronger binding
# Details in all cases: glycan notation: IUPAC condensed, linker removed
# [1] = target: Neu5Ac(a2-6)Gal(b1-4)GlcNAc(b1-3)Gal(b1-4)GlcNAc(b1-3)Gal(b1-4)GlcNAc(b1-2)Man(a1-3)[Neu5Ac(a2-6)Gal(b1-4)GlcNAc(b1-3)Gal(b1-4)GlcNAc(b1-3)Gal(b1-4)GlcNAc(b1-2)Man(a1-6)]GalNAc
# Method in brief: (§1)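 Columns mapping to the same glycan were averaged after glycan names were converted to IUPAC-condensed notation. The data come from 3228 arrays in the Consortium for Functional Glycomics database, limited to those with an available protein sequence. Binding is reported as a within-array Z-score averaged across arrays of one protein sequence and across linkers.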
# [2] = target: Neu5Ac(a2-6)Gal(b1-4)GlcNAc(b1-3)Gal(b1-4)GlcNAc(b1-3)GalNAc
# Method in brief: as §1
# [3] = target: Neu5Ac(a2-6)Gal(b1-4)GlcNAc(b1-3)Gal(b1-4)GlcNAc(b1-3)[Neu5Ac(a2-6)Gal(b1-4)GlcNAc(b1-3)Gal(b1-4)GlcNAc(b1-6)]GalNAc
# Method in brief: as §1
# [4] = target: Neu5Ac(a2-6)Gal(b1-4)GlcNAc(b1-3)Gal(b1-4)GlcNAc(b1-6)[Gal(b1-3)]GalNAc
# Method in brief: as §1
# [5] = target: Neu5Ac(a2-6)Gal(b1-4)GlcNAc(b1-3)Gal(b1-4)[Fuc(a1-3)]GlcNAc(b1-3)Gal(b1-4)[Fuc(a1-3)]GlcNAc
# Method in brief: as §1
# [6] = target: Neu5Ac(a2-6)Gal(b1-4)GlcNAc(b1-3)GalNAc
# Method in brief: as §1
# [7] = target: Neu5Ac(a2-6)Gal(b1-4)GlcNAc(b1-3)[Neu5Ac(a2-6)Gal(b1-4)GlcNAc(b1-6)]GalNAc
# Method in brief: as §1
# [8] = target: Neu5Ac(a2-6)Gal(b1-4)GlcNAc(b1-6)GalNAc
# Method in brief: as §1
# [9] = target: Neu5Ac(a2-6)Gal(b1-4)GlcNAc(b1-6)[Gal(b1-3)GlcNAc(b1-3)]Gal(b1-4)Glc
# Method in brief: as §1
# [10] = target: Neu5Ac(a2-6)Gal(b1-4)GlcNAc(b1-6)[Gal(b1-3)]GalNAc
# Method in brief: as §1
# [11] = target: Neu5Ac(a2-6)Gal(b1-4)GlcNAc6S
# Method in brief: as §1
# Neu5Ac(a2-6)GalNAc = target: Neu5Ac(a2-6)GalNAc
# Method in brief: as §1
# [12] = target: Neu5Ac(a2-6)GalNAc(b1-4)GlcNAc
# Method in brief: as §1
# [13] = target: Neu5Ac(a2-6)GalNAc(b1-4)GlcNAc6S
# Method in brief: as §1
# [14] = target: Neu5Ac(a2-6)GlcNAc(b1-4)GlcNAc
# Method in brief: as §1
# [15] = target: Neu5Ac(a2-6)GlcNAc(b1-4)GlcNAc(b1-4)GlcNAc
# Method in brief: as §1
# Neu5Ac(a2-8)Neu5Ac = target: Neu5Ac(a2-8)Neu5Ac
# Method in brief: as §1
# [16] = target: Neu5Ac(a2-8)Neu5Ac(a2-3)Gal(b1-3)GalNAc(b1-4)[Neu5Ac(a2-3)]Gal(b1-4)Glc
# Method in brief: as §1
# [17] = target: Neu5Ac(a2-8)Neu5Ac(a2-3)Gal(b1-3)GalNAc(b1-4)[Neu5Ac(a2-8)Neu5Ac(a2-3)]Gal(b1-4)Glc
# Method in brief: as §1
# [18] = target: Neu5Ac(a2-8)Neu5Ac(a2-3)Gal(b1-4)Glc
# Method in brief: as §1
# [19] = target: Neu5Ac(a2-8)Neu5Ac(a2-3)Gal(b1-4)GlcNAc
# Method in brief: as §1
# [20] = target: Neu5Ac(a2-8)Neu5Ac(a2-3)[Gal(b1-3)GalNAc(b1-4)]Gal(b1-4)Glc
# Method in brief: as §1
# [21] = target: Neu5Ac(a2-8)Neu5Ac(a2-3)[GalNAc(b1-4)]Gal(b1-4)Glc
# Method in brief: as §1
# [22] = target: Neu5Ac(a2-8)Neu5Ac(a2-8)Neu5Ac
# Method in brief: as §1
# [23] = target: Neu5Ac(a2-8)Neu5Ac(a2-8)Neu5Ac(a2-3)Gal(b1-4)Glc
# Method in brief: as §1
# [24] = target: Neu5Ac(a2-8)Neu5Ac(a2-8)Neu5Ac(a2-3)[Gal(b1-3)GalNAc(b1-4)]Gal(b1-4)Glc
# Method in brief: as §1
# [25] = target: Neu5Ac(a2-8)Neu5Ac(a2-8)Neu5Ac(a2-3)[GalNAc(b1-4)]Gal(b1-4)Glc
# Method in brief: as §1
# [26] = target: Neu5Ac(a2-8)Neu5Ac(a2-8)Neu5Ac(a2-8)Neu5Ac(a2-3)[GalNAc(b1-4)]Gal(b1-4)Glc
# Method in brief: as §1
# [27] = target: Neu5Ac(a2-8)Neu5Gc(a2-3)Gal(b1-4)GlcNAc
# Method in brief: as §1
# [28] = target: Neu5Ac(b2-6)Gal(b1-4)GlcNAc
# Method in brief: as §1
# Neu5Ac(b2-6)GalNAc = target: Neu5Ac(b2-6)GalNAc
# Method in brief: as §1
# [29] = target: Neu5Ac9Ac(a2-3)Gal(b1-3)GlcNAc
# Method in brief: as §1
# [30] = target: Neu5Ac9Ac(a2-3)Gal(b1-4)GlcNAc
# Method in brief: as §1
# [31] = target: Neu5Ac9Ac(a2-6)Gal(b1-4)GlcNAc
# Method in brief: as §1
# [32] = target: Neu5Gc(a2-3)Gal(b1-3)GlcNAc
# Method in brief: as §1
# [33] = target: Neu5Gc(a2-3)Gal(b1-3)[Fuc(a1-4)]GlcNAc
# Method in brief: as §1
# Neu5Gc(a2-3)Gal(b1-4)Glc = target: Neu5Gc(a2-3)Gal(b1-4)Glc
# Method in brief: as §1
# [34] = target: Neu5Gc(a2-3)Gal(b1-4)GlcNAc
# Method in brief: as §1
# [35] = target: Neu5Gc(a2-3)Gal(b1-4)GlcNAc(b1-3)Gal(b1-4)GlcNAc(b1-2)Man(a1-3)[Neu5Gc(a2-3)Gal(b1-4)GlcNAc(b1-3)Gal(b1-4)GlcNAc(b1-2)Man(a1-6)]Man(b1-4)GlcNAc(b1-4)GlcNAc
# Method in brief: as §1
# [36] = target: Neu5Gc(a2-3)Gal(b1-4)[Fuc(a1-3)]GlcNAc
# Method in brief: as §1
# [37] = target: Neu5Gc(a2-6)Gal(b1-4)GlcNAc
# Method in brief: as §1
# Neu5Gc(a2-6)GalNAc = target: Neu5Gc(a2-6)GalNAc
# Method in brief: as §1
# [38] = target: Neu5Gc(a2-8)Neu5Ac(a2-3)Gal(b1-4)GlcNAc
# Method in brief: as §1
# [39] = target: Neu5Gc(a2-8)Neu5Gc(a2-3)Gal(b1-4)GlcNAc
# Method in brief: as §1
# [40] = target: Neu5Gc(a2-8)Neu5Gc(a2-3)Gal(b1-4)GlcNAc(b1-3)Gal(b1-4)GlcNAc
# Method in brief: as §1
binder,measurement,setting,value
B1,glycan array binding signal (z-score),[1],-0.267
same,glycan array binding signal (z-score),[2],-0.349
same,glycan array binding signal (z-score),[3],1.6
same,glycan array binding signal (z-score),[4],-0.597
same,glycan array binding signal (z-score),[5],-0.521
same,glycan array binding signal (z-score),[6],-0.607
same,glycan array binding signal (z-score),[7],-0.192
same,glycan array binding signal (z-score),[8],0.441
same,glycan array binding signal (z-score),[9],0.385
same,glycan array binding signal (z-score),[10],-0.413
same,glycan array binding signal (z-score),[11],-0.702
same,glycan array binding signal (z-score),Neu5Ac(a2-6)GalNAc,-0.875
same,glycan array binding signal (z-score),[12],-0.747
same,glycan array binding signal (z-score),[13],0.266
same,glycan array binding signal (z-score),[14],-0.607
same,glycan array binding signal (z-score),[15],0.675
same,glycan array binding signal (z-score),Neu5Ac(a2-8)Neu5Ac,-0.483
same,glycan array binding signal (z-score),[16],-0.55
same,glycan array binding signal (z-score),[17],-0.655
same,glycan array binding signal (z-score),[18],-1.36
same,glycan array binding signal (z-score),[19],-0.815
same,glycan array binding signal (z-score),[20],-0.044
same,glycan array binding signal (z-score),[21],-1.37
same,glycan array binding signal (z-score),[22],-0.152
same,glycan array binding signal (z-score),[23],-0.12
same,glycan array binding signal (z-score),[24],0.705
same,glycan array binding signal (z-score),[25],0.959
same,glycan array binding signal (z-score),[26],0.299
same,glycan array binding signal (z-score),[27],-0.243
same,glycan array binding signal (z-score),[28],-0.48
same,glycan array binding signal (z-score),Neu5Ac(b2-6)GalNAc,-0.452
same,glycan array binding signal (z-score),[29],-0.694
same,glycan array binding signal (z-score),[30],0.016
same,glycan array binding signal (z-score),[31],-0.568
same,glycan array binding signal (z-score),[32],0.728
same,glycan array binding signal (z-score),[33],-1.11
same,glycan array binding signal (z-score),Neu5Gc(a2-3)Gal(b1-4)Glc,0.478
same,glycan array binding signal (z-score),[34],-0.066
same,glycan array binding signal (z-score),[35],-0.144
same,glycan array binding signal (z-score),[36],0.623
same,glycan array binding signal (z-score),[37],-0.697
same,glycan array binding signal (z-score),Neu5Gc(a2-6)GalNAc,-0.616
same,glycan array binding signal (z-score),[38],0.386
same,glycan array binding signal (z-score),[39],-1.21
same,glycan array binding signal (z-score),[40],0.928

# Random excerpt: 2 records from the list
binder,measurement,setting,value
B1,glycan array binding signal (z-score),Neu5Ac(b2-6)GalNAc,-0.452
same,glycan array binding signal (z-score),[27],-0.243

# From the supplement of paper PMC8728848
